Experimental data: PMC11894219

Amino acid sequences for entries named in this document (tags omitted).
UniProt P54132: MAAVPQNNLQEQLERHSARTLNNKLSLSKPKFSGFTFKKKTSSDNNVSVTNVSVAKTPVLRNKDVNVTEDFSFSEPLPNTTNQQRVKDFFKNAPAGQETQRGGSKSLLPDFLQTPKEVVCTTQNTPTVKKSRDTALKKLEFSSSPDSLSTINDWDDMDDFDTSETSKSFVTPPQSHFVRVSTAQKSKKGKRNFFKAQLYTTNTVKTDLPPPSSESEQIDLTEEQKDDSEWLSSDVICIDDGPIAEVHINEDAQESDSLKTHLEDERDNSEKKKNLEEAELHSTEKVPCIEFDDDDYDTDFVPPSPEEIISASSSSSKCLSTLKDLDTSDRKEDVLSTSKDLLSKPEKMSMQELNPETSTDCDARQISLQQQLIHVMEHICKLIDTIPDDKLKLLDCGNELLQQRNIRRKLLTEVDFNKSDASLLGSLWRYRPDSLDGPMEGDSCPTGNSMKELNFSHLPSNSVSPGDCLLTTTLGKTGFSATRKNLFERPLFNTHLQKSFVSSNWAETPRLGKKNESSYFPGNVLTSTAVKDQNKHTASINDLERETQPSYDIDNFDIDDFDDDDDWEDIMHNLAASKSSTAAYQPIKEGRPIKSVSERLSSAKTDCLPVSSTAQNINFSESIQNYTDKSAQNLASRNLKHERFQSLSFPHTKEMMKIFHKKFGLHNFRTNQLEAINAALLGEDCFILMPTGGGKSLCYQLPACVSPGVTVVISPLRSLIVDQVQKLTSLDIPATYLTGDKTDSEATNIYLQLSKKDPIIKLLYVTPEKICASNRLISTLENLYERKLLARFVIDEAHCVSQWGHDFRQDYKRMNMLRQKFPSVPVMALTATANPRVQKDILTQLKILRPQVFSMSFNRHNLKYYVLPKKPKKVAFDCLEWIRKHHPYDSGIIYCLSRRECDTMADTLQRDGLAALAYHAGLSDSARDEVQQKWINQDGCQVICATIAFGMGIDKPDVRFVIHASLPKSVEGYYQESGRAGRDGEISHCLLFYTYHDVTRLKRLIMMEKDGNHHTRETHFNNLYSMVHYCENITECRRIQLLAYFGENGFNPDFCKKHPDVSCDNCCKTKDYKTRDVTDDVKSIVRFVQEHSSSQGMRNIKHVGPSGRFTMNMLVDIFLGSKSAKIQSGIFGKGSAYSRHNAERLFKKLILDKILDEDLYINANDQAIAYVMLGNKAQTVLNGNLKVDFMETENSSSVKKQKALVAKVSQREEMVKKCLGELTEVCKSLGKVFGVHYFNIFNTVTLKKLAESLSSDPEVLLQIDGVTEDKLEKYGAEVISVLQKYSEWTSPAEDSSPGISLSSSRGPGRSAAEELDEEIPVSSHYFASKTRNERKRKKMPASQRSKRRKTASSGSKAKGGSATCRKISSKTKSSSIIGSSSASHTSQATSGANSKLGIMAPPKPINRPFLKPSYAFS

Assays:
[1] = biological target: T1, FLAG-BirA*-RAD54L2 (human) (UniProt Q9Y4B4); assay: proximity labelling; BioID with BirA*-RAD54L2 in HEK293; doxycycline and 50 uM biotin for 24 h; streptavidin-sepharose, mass spectrometry; BFDR <=0.01
T1 sequence: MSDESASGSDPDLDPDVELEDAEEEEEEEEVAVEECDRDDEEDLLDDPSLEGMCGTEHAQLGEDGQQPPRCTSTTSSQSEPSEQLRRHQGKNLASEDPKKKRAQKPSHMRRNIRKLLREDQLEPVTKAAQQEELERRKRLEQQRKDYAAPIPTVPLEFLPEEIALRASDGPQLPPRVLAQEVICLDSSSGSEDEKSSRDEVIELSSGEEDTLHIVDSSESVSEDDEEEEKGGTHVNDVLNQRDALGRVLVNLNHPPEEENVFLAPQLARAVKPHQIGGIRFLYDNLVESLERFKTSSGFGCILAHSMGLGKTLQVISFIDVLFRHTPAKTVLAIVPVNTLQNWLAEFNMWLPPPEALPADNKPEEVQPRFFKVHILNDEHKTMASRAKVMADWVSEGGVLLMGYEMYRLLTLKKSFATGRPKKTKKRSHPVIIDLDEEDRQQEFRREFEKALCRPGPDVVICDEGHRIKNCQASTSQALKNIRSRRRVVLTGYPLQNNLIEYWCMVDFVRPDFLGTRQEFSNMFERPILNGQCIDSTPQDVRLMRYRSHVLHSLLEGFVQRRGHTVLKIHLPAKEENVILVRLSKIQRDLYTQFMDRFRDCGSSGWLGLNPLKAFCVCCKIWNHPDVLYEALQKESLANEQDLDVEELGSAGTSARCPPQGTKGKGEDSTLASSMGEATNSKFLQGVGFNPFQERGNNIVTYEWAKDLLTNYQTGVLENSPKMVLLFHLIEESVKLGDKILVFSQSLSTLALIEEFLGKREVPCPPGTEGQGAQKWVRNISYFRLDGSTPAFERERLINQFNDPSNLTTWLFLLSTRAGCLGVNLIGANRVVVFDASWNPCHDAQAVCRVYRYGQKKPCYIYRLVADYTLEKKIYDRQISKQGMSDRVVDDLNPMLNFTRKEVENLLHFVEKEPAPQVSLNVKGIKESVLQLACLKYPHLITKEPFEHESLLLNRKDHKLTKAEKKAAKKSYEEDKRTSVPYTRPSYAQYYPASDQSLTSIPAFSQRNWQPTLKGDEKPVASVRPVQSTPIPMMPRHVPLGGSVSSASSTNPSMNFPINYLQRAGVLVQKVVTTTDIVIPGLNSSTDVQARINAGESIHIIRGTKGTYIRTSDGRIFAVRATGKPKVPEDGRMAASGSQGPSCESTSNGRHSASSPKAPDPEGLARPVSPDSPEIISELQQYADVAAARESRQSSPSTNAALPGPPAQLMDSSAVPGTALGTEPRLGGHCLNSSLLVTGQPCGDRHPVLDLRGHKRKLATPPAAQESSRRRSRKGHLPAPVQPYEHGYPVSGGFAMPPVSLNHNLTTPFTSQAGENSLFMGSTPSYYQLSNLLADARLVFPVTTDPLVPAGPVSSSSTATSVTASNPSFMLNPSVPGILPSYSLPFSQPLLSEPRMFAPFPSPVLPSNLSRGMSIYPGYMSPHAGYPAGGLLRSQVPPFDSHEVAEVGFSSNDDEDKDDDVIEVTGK

FLAG-BirA*-BLM (human) = FLAG-BirA*-BLM (human) (UniProt P54132); assay: proximity labelling; BioID with N-terminal BirA* fusions of BLM, TOP3A, RMI1 or RMI2 in HEK293; doxycycline and 50 uM biotin for 24 h; RIPA lysis, streptavidin-sepharose, mass spectrometry; SAINTexpress BFDR <=0.01
FLAG-BirA*-RMI1 (human) = biological target: T2, FLAG-BirA*-RMI1 (human) (UniProt Q9H9A7); assay: as above
T2 sequence: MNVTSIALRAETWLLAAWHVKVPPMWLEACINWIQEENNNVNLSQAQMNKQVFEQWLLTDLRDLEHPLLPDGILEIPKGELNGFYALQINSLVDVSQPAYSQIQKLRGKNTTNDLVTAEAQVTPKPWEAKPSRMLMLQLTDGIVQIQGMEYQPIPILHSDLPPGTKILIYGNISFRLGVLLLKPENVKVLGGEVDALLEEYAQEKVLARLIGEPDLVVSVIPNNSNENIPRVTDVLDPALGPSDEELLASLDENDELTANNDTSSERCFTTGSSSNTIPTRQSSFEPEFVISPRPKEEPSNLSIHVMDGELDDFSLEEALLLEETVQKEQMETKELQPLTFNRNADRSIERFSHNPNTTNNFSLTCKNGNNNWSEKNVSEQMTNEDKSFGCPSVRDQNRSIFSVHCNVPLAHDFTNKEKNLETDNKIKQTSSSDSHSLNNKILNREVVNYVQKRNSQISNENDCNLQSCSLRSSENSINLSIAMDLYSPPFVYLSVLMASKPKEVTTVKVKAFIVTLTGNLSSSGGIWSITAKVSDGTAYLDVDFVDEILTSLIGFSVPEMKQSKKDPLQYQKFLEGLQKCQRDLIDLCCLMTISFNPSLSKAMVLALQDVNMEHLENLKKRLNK

binding [1]: binds
binding (FLAG-BirA*-BLM (human)): binds
binding (FLAG-BirA*-RMI1 (human)): binds
B1: ZNF451 (protein, UniProt Q9Y4E5 1-1061)
chain: MGDPGSEIIESVPPAGPEASESTTDENEDDIQFVSEGPLRPVLEYIDLVSSDDEEPSTSYTDENIKRKDHIDYQKDKVALTLARLARHVEVEKQQKEEKNRAFREKIDFQHAHGLQELEFIRGHSDTEAARLCVDQWLKMPGLKTGTINCGTKSSFRRGGHTWVSGKPILCPIMHCNKEFDNGHLLLGHLKRFDHSPCDPTITLHGPFFSSFACVVCYKKFVTQQQYRDHLFDKEATDDGHNNNLLPQIIQCFACPNCFLLFSRKEECSKHMSGKNHFHQSFKLGDNKGIAHPISFPSFAKKLLISLCKDVPFQVKCVACHKTLRSHMELTAHFRVHCRNAGPVAVAEKSITQVAEKFILRGYCPDCNQVFVDETSTQNHKQNSGHKVRVINSVEESVLLYCHSSEGNKDPSSDLHLLLDQSKFSSLKRTMSIKESSSLECIAIPKKKMNLKDKSHEGVACVQKEKSVVKTWFCECNQRFPSEDAVEKHVFSANTMGYKCVVCGKVCDDSGVIRLHMSRIHGGAHLNNFLFWCRTCKKELTRKDTIMAHVTEFHNGHRYFYEMDEVEGETLPSSSTTLDNLTANKPSSAITVIDHSPANSSPRGKWQCRICEDMFDSQEYVKQHCMSLASHKFHRYSCAHCRKPFHKIETLYRHCQDEHDNEIKIKYFCGLCDLIFNVEEAFLSHYEEHHSIDYVFVSEKTETSIKTEDDFPVIETSNQLTCGCRESYICKVNRKEDYSRCLQIMLDKGKLWFRCSLCSATAQNLTDMNTHIHQVHKEKSDEEEQQYVIKCGTCTKAFHDPESAQQHFHRKHCFLQKPSVAHFGSEKSNLYKFTASASHTERKLKQAINYSKSLDMEKGVENDLSYQNIEEEIVELPDLDYLRTMTHIVFVDFDNWSNFFGHLPGHLNQGTFIWGFQGGNTNWKPPLNCKIYNYLNRIGCFFLHPRCSKRKDAADFAICMHAGRLDEQLPKQIPFTILSGDQGFLELENQFKKTQRPAHILNPHHLEGDMMCALLNSISDTTKECDSDDNMGAKNTSIGEEFISTEDVELEEAIRRSLEEM

Results are given in words; binding and its absence hold for the method and conditions named. Binding seen in cells or lysates may run through a third protein. Here binding means that the protein was enriched with, or labelled near, the bait; the list need not be complete. For part of these data: Where a sequence is shown, tags or fusion partners need not be part of it.
